These are yes or no findings as the source states them, for the method shown. Binding seen in cells or lysates may run through a third protein. Here binding means that the protein was enriched with, or labelled near, the bait; the list need not be complete.
Experiments:
Experiment in all cases: affinity purification with mass spectrometry; anti-FLAG M2 agarose IP from extracts of HEK293 cells expressing the FLAG-tagged bait, NTEN lysis buffer (150 mM NaCl, 0.5% NP-40), 4 °C 4 h, elution with 3× Flag peptide, mass spectrometry; mock HEK293 cells as control
FLAG-tagged RIF1 = FLAG-tagged RIF1 (UniProt Q5UIP0)
FLAG-tagged ASF1a = FLAG-tagged ASF1a (UniProt Q9Y294)
FLAG-tagged ASF1b = FLAG-tagged ASF1b (UniProt Q9NVP2)

Amino acid sequences for entries named in this document (tags omitted).
UniProt Q5UIP0: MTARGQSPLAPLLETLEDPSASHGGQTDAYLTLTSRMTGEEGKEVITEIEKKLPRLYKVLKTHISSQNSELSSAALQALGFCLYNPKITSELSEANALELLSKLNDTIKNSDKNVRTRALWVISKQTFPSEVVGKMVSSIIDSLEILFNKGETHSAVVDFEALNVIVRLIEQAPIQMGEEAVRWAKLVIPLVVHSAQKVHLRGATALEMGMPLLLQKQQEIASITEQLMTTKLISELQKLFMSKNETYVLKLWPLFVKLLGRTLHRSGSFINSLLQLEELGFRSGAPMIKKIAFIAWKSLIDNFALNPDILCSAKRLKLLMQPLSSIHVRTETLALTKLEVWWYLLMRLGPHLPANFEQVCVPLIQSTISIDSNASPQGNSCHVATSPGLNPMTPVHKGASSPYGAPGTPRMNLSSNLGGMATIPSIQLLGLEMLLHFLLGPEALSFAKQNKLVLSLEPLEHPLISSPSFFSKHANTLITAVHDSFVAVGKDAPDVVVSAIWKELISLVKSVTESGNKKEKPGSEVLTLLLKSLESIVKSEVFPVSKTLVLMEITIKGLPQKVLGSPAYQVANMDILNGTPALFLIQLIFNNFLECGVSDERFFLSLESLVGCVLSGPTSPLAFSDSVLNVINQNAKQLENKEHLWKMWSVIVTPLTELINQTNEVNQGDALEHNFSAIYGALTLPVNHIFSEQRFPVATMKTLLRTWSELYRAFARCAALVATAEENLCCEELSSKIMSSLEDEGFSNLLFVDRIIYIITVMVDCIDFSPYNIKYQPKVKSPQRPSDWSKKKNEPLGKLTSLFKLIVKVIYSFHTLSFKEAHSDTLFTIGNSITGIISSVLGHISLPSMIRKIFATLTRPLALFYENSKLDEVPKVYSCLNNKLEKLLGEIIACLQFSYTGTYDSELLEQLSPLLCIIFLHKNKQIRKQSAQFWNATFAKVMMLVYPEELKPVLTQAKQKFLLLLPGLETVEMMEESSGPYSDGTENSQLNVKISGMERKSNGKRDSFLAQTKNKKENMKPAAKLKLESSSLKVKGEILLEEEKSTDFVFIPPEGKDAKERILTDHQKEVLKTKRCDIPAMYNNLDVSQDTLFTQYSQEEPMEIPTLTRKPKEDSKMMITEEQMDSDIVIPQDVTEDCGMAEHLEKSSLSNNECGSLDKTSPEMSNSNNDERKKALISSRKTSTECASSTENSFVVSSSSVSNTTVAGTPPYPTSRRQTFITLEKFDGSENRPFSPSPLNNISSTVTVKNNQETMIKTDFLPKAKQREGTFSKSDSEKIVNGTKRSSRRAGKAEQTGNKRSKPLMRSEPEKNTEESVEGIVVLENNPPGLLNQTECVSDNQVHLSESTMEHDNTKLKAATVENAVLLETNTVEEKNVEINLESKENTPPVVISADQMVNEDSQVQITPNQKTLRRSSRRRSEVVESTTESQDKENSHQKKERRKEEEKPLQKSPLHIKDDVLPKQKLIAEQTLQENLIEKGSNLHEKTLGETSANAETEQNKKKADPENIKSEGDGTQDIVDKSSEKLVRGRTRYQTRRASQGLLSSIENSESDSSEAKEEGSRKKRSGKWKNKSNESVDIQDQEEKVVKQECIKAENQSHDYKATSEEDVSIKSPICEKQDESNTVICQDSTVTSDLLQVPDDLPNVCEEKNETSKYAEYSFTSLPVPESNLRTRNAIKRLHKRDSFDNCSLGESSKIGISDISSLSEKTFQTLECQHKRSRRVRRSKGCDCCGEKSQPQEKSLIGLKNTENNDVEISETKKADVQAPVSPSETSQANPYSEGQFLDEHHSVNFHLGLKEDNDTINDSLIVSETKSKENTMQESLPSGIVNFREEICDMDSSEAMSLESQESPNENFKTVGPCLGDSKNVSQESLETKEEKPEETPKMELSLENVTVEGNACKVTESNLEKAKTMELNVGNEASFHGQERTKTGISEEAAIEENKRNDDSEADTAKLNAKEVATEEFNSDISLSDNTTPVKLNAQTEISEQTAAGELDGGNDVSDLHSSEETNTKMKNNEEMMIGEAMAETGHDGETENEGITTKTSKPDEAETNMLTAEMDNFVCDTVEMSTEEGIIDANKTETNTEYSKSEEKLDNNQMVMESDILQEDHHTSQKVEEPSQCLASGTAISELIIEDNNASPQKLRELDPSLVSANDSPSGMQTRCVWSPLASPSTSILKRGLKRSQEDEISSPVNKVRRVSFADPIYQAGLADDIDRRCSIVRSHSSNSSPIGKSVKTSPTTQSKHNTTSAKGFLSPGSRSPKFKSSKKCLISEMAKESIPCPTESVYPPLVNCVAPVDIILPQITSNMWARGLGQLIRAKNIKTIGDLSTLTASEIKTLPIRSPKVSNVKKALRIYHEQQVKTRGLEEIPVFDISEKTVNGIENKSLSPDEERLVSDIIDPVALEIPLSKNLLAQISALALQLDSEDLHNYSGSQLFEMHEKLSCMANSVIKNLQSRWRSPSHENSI
UniProt Q9Y294: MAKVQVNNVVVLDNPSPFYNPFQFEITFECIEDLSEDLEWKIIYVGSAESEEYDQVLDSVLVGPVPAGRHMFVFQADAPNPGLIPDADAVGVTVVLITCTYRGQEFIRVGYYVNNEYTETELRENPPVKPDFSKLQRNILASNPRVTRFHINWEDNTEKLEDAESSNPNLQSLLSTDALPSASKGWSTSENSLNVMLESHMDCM
UniProt Q9NVP2: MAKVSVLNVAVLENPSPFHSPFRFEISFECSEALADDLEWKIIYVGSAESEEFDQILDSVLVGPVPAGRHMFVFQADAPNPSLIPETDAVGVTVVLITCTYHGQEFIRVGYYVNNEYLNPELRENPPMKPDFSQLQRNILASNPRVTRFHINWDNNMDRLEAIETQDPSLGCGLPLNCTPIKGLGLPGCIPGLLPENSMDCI

Substance	binding (FLAG-tagged RIF1)	binding (FLAG-tagged ASF1a)	binding (FLAG-tagged ASF1b)
ASF1a (endogenous, HEK293) (from UniProt Q9Y294 1-204)	binds		
RIF1 (endogenous, HEK293) (from UniProt Q5UIP0 1-2472)		binds	binds
